Experimental data taken from patent publication US20100137221A1, “PEPTIDES THAT INTERACT WITH TOPOISOMERASE I AND METHODS THEREOF” (UNIVERSITY UTAH RESEARCH FOUNDATION, priority 2007, published 2010).
Results are given in words; binding and its absence hold for the method and conditions named.

Experiments:
topoisomerase II [1] = experiment: SPR (BIAcore), channel derivatized with T1BP2, 8.0 nM topoisomerase II injected
tubulin [2] = experiment: SPR (BIAcore), channel derivatized with T1BP2, 8.0 nM tubulin injected
tubulin [3] = experiment: SPR (BIAcore), analyte injected over T1BP2-derivatized channel
topoisomerase II [4] = experiment: as above

Measured: binding

B1: T1BP2 (peptide)
peptide: SAYAATVRGPLSSAS
notes: Coupled to a CM5 chip for SPR; also called T1PB2; CPP3
no binding (tested: 8.0 nM): topoisomerase II [1] | tubulin [2] | tubulin [3] | topoisomerase II [4]
